Data taken from EP2601963B1, “N-ISOVALEROYL-L-GLUTAMYL-L-TRYPTOPHAN AS AN AGENT INHIBITING THE FORMATION OF ULCERS IN THE STOMACH AND THE DUODENUM” (Obshestvo S Ogranichennoj Otvetstvennostju "CytoNIR", priority 2010, dated 2015).

Experiments:
Type in all cases: in vivo, male Wistar rats
[1] = Water-immersion stress model: weight of organs
Protocol: (§1) Intensity of changes caused by stressors in the internal organs of the animals was evaluated by the relative weight changes of the adrenal glands, thymus, and spleen calculated as a ratio of the organ's weight to the body weight of the animal multiplied by 100.

[2] = Indomethacin-induced ulcer model, therapeutic: weight of organs; details: treatment 5 days after Indomethacin
Protocol: as §1
2 ml/kg of the ulcerogenic dose of indomethacin equal to 30 mg/kg was administered intraperitoneally. The treatment started 24 hrs. post indomethacin administration and continued for 5 days. The animals in the experimental groups received N-isovaleroyl-L-glutamyl-L-tryptophan or the comparator drug Sucralfate, and the control group received distilled water.

[3] = Indomethacin-induced ulcer model, preventive: weight of organs
Protocol: as §1
The efficacy of the course of preventive treatment with the claimed composition was evaluated 24 hrs. post indomethacin administration. The study was conducted as in Example 1.

Substance | Animal Wt. ([1]; 0.1 mkg/kg + stress) | Animal Wt. ([1]; 10.0 mkg/kg + stress) | Wt. of the Animals ([2]; 0.1 mkg/kg) | Wt. of the Animals ([2]; 10.0 mkg/kg) | Wt. of the Animals ([3]; 0.1 mkg/kg + Indomethacin 20 mg/kg) | Wt. of the Animals ([3]; 10 mkg/kg + Indomethacin 20 mg/kg) | Wt. of the Animals ([3]; 200 mg/kg + Indomethacin 20 mg/kg)
N-isovaleroyl-L-glutamyl-L-tryptophan [VGT preparation] | 236 ± 7 g | 239 ± 6 g | 217 ± 9 g | 224 ± 16 g | 219 ± 7 g | 216 ± 7 g | 
aluminum complex of beta-D-fructofuranosyl-alpha-D-glucopyranoside octakis (hydrosulfate) [Sucralfate] |  |  |  |  |  |  | 235 ± 9 g
